Data as given in publication PMC4510591.
No constants are given. Whether binding was seen depends on the method and setting. Binding seen in cells or lysates may run through a third protein. Binding can be weak; no strength is given.

Experiments:
[1] = target: T1, Spindle-F (Spn-F), overexpressed in S2 cells (Drosophila) (UniProt Q9V9Y9); assay: co-IP; transfected S2 cells lysed in 50 mM Tris-HCl pH 7.5, 150 mM NaCl, 0.5% Triton X-100, 10% glycerol, 1 mM EDTA, 1 mM DTT; anti-HA, anti-GFP or anti-myc beads, 2 h at 4°C
T1 sequence: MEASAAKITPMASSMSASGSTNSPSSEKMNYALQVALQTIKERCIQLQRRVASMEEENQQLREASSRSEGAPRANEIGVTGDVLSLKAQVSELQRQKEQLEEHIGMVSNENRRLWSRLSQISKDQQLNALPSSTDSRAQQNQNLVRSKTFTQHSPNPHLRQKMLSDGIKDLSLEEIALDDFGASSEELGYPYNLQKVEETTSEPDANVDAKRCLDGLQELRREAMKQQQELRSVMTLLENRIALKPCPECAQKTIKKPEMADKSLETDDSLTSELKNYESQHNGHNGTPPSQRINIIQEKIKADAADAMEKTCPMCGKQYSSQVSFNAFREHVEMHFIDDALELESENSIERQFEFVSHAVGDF

[2] = target: T2, Spn-F C1 construct (amino acids 191-273) (Drosophila) (UniProt Q9V9Y9); assay: as above
T2 sequence: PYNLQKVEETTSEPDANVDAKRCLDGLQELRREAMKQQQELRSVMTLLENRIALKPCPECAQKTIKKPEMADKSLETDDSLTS

[3] = target: T3, Spindle-F (Spn-F), endogenous in ovary (Drosophila (endogenous in ovary)) (UniProt Q9V9Y9); assay: co-IP; ovary lysates of adult females in lysis buffer; rabbit anti-Spn-F (rabbit anti-GFP as control IgG), 1 h, then Protein G-Sepharose 1 h at 4°C
T3 sequence: T1 sequence

IKKε::HA (Drosophila) (enzyme)
binding [1]: binds | binding [2]: binds

IKKε::myc (Drosophila) (enzyme)
binding [1]: binds

IκB kinase ε (IKKε), endogenous in ovary (Drosophila (endogenous in ovary)) (enzyme)
binding [3]: binds
